Results are given in words; binding and its absence hold for the method and conditions named. Some results given as binding are weak or reduced against the parent protein; the word gives no strength.
Molecular target: native RodZ in the cell lysate of S. sonnei MS390 (S. sonnei (endogenous in MS390)) (UniProt Q3YZ36)
Assay: SEC; soluble lysate of S. sonnei MS390 (micrococcal nuclease treated) on Superdex 200 PC3.2/30 in RNA binding buffer with 0.1% Tween 20 and 0.1% Triton X-100; fractions immunoblotted for RodZ and MreB

By UniProt entry, the sequences of proteins in these tests, tags left out.
UniProt Q3YZ36: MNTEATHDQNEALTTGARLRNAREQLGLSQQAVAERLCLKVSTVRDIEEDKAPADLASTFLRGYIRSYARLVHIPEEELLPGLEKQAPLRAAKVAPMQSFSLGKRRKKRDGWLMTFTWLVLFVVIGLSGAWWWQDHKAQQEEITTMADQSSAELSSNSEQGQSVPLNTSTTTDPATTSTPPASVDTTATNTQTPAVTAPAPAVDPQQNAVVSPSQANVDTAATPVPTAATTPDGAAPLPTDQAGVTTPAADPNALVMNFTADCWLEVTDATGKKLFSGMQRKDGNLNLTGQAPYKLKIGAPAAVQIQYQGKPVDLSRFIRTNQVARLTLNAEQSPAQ

- binding: binds
Substance: native RodZ in the cell lysate of S. sonnei MS390 (from UniProt Q3YZ36 1-337)

From paper PMC7018016, “Superstructure formation by RodZ hexamers of Shigella sonnei maintains the rod shape of bacilli” (PLoS ONE, 2020)
